Assay results: paper PMC7618776, “Direct recruitment of Mis18 to interphase spindle pole bodies promotes CENP-A chromatin assembly” (Current biology : CB, 2023)

Amino acid sequences for entries named in this document (tags omitted).
UniProt O74539: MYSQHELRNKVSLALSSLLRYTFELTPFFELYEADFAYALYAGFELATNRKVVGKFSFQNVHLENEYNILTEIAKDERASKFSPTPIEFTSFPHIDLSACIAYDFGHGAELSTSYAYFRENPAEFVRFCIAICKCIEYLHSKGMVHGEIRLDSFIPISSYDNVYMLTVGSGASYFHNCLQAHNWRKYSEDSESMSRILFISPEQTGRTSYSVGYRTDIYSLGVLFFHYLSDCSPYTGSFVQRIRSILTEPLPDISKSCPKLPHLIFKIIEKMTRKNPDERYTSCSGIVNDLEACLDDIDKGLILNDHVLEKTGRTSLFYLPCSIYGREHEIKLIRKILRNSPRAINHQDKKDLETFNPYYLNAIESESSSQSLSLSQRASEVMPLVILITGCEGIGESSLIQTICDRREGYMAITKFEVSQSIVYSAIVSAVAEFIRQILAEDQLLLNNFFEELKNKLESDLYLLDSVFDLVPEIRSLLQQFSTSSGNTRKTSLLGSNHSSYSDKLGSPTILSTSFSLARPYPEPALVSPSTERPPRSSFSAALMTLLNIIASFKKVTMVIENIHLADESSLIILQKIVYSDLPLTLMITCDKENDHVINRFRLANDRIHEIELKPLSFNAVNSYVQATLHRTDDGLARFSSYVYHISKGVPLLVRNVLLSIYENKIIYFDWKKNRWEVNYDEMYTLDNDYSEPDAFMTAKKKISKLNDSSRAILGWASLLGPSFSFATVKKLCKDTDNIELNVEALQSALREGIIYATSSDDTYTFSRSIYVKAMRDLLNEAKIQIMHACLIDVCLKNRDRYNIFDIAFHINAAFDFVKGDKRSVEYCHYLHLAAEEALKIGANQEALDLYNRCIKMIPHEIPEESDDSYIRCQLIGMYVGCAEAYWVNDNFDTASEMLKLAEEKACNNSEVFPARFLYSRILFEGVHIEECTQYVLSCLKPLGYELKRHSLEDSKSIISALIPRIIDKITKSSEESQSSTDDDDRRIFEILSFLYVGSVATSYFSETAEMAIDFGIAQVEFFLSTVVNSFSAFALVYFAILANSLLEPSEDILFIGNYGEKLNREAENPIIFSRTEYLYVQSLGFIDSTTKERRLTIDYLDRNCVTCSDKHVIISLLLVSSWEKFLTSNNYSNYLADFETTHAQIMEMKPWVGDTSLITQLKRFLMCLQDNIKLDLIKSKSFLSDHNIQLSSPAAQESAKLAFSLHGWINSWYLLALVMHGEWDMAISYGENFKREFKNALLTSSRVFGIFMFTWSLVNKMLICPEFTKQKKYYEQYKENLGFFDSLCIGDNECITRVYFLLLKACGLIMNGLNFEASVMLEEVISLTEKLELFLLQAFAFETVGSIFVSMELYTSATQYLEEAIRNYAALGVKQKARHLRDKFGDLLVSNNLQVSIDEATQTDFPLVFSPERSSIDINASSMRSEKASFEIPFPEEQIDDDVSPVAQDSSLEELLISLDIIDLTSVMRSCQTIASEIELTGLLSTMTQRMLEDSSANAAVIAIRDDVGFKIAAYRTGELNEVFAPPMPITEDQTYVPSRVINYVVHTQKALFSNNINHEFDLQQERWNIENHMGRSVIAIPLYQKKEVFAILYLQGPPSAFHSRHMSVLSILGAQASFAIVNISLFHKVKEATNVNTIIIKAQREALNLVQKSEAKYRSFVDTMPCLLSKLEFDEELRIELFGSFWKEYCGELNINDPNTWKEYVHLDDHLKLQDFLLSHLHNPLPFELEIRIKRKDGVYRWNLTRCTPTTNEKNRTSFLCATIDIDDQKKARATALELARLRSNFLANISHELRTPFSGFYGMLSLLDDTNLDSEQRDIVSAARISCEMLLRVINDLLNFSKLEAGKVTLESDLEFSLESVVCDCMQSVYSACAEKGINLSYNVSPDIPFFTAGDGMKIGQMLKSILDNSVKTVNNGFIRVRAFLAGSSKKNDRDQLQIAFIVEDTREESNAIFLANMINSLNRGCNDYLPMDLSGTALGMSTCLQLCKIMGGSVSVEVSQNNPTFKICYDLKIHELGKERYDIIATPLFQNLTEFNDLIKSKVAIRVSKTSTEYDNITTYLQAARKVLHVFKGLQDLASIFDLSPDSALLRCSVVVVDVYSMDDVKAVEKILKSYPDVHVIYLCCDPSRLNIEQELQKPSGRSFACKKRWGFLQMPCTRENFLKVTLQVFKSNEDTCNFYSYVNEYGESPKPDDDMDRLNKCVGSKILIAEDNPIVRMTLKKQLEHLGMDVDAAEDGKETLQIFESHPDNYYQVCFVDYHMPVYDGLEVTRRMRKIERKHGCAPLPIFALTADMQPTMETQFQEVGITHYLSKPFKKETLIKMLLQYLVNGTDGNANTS

Experiments:
[1] = target: Sad1-3V5 (C-terminally 3xV5-tagged Sad1) (S. pombe) (UniProt Q09825); experiment: affinity purification with mass spectrometry; anti-V5 IP (antibody cross-linked to Protein G Dynabeads) of Sad1-3V5 or Sad1-4A-3V5 from S. pombe cell extracts, label-free quantitative MS of triplicate IPs, compared with untagged control or wild-type Sad1-3V5 IPs; wild-type, csi1Δ, lem2Δ and csi1Δlem2Δ cells; SPB lysis buffer (25 mM HEPES, 150 mM KCl, 2 mM MgCl2, 0.5% Triton-X 100, 10% glycerol, 1 mM DTT), benzonase, 4°C 2 hrs
[2] = target: T1, Sad1-3V5 (C-terminally 3xV5-tagged Sad1) (S. pombe), Q09825; experiment: affinity purification with mass spectrometry; anti-V5 IP (antibody cross-linked to Protein G Dynabeads) of Sad1-3V5 or Sad1-4A-3V5 from S. pombe cell extracts, label-free quantitative MS of triplicate IPs, compared with untagged control or wild-type Sad1-3V5 IPs; wild-type, csi1Δ, lem2Δ and csi1Δlem2Δ cells; SPB lysis buffer (25 mM HEPES, 150 mM KCl, 2 mM MgCl2, 0.5% Triton-X 100, 10% glycerol, 1 mM DTT), benzonase, …; settings: remark: other sources report otherwise
T1 chain: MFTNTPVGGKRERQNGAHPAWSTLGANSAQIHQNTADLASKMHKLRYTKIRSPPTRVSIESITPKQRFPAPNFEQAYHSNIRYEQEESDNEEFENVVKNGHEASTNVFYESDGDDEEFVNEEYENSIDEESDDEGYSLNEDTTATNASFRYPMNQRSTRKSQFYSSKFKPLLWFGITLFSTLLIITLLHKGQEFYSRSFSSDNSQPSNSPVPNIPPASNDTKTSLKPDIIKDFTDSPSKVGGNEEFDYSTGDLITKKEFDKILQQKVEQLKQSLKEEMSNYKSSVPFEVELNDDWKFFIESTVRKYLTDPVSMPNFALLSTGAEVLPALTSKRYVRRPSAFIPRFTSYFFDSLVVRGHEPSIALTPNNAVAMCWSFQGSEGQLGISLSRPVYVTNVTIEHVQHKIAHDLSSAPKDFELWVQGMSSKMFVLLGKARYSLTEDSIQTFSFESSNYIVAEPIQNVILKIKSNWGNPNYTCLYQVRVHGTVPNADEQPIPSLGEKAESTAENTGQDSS

Sad1-4A-3V5 (S. pombe) = Sad1-4A-3V5 (S. pombe) (UniProt Q09825); experiment: affinity purification with mass spectrometry; anti-V5 IP (antibody cross-linked to Protein G Dynabeads) of Sad1-3V5 or Sad1-4A-3V5 from S. pombe cell extracts, label-free quantitative MS of triplicate IPs, compared with untagged control or wild-type Sad1-3V5 IPs; wild-type, csi1Δ, lem2Δ and csi1Δlem2Δ cells; SPB lysis buffer (25 mM HEPES, 150 mM KCl, 2 mM MgCl2, 0.5% Triton-X 100, 10% glycerol, 1 mM DTT), benzonase, 4°C 2 hrs

binding [1]: no binding
Molecule: Mak3 (from UniProt O74539 1-2344)

binding [2]: binds
B1: Ima1, O13681 1-615 (protein)
chain: MESSRLFTLGLGNSDDGLKSTFGDKTVTCFYCNKKKEKIRDGTSTWTCSICEATNHIDEKGDILDYRPPTPTQDKGVGPFYAIRDFPSSSSFQSPFCEKCQMNQLIVNRMLADYLPDSSHPDYQAYEKALPEYKKSIEEKFPIVCSECYDSVQDQLDANDYEAKNQVLGYWLQKSKEQLNAKVPHHYPKASFVLWLLRGFGFSFFYLQSIVWHLYHSMIISLLPDGIRNLFLKAISYFLLDGSSSKIFYFNWLGFFVVFWNPYWYKMMDNPSWELFGRDQYIQCQALYLIIRLTCLYLLSCYESEILNLSSDTNLESDFLLRQIHAAFFFVTICFTWISISCLKPSPPPEVHLTGEILKPRKKRQESTSSVHRIGKESSDRKDGISGQNKLQQFATISILNNTNATSHLGNQSVRERAPEESPMTFLQKKMAALPTSSPVRPMLKPTLQLQNSPLSKLVPQEVGNKVNDSIHTTSNQPSKFSLNPSISLKGDNVIEKNLPFSVSTLKSTAKKDTGKAGDGQNREIQNEPVSLESHFSKSLALQNDPTEVIQVKNVLHRNRRNAKLLIAFTILFLVGLICGWRLNRFTMFIYYLCILVLATYYVMKHNFYPLRKVA

binding (Sad1-4A-3V5 (S. pombe)): binds
B2: Ima1 (protein, UniProt O13681 1-615)
chain: MESSRLFTLGLGNSDDGLKSTFGDKTVTCFYCNKKKEKIRDGTSTWTCSICEATNHIDEKGDILDYRPPTPTQDKGVGPFYAIRDFPSSSSFQSPFCEKCQMNQLIVNRMLADYLPDSSHPDYQAYEKALPEYKKSIEEKFPIVCSECYDSVQDQLDANDYEAKNQVLGYWLQKSKEQLNAKVPHHYPKASFVLWLLRGFGFSFFYLQSIVWHLYHSMIISLLPDGIRNLFLKAISYFLLDGSSSKIFYFNWLGFFVVFWNPYWYKMMDNPSWELFGRDQYIQCQALYLIIRLTCLYLLSCYESEILNLSSDTNLESDFLLRQIHAAFFFVTICFTWISISCLKPSPPPEVHLTGEILKPRKKRQESTSSVHRIGKESSDRKDGISGQNKLQQFATISILNNTNATSHLGNQSVRERAPEESPMTFLQKKMAALPTSSPVRPMLKPTLQLQNSPLSKLVPQEVGNKVNDSIHTTSNQPSKFSLNPSISLKGDNVIEKNLPFSVSTLKSTAKKDTGKAGDGQNREIQNEPVSLESHFSKSLALQNDPTEVIQVKNVLHRNRRNAKLLIAFTILFLVGLICGWRLNRFTMFIYYLCILVLATYYVMKHNFYPLRKVA

No constants are given. Whether binding was seen depends on the method and setting. Binding seen in cells or lysates may run through a third protein. Here binding means that the protein was enriched with, or labelled near, the bait; the list need not be complete. For part of these data: No binding means not detected with the bait. For part of these data: Tags and fused reporters may be left off the sequences shown. Each block holds one molecule with its values, some of them ahead of it.
